Measured data: PubChem BioAssay AID493246 (Drosophila RNAi Screening Center, 2011)

Assay: 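Genes fly cells need to grow and stay alive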 (primary screen)
Cells: Drosophila Kc and S2R+ cells
Reagents: long dsRNA against Drosophila genes
Detection: 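Raw, unnormalised count of remaining cells in each well; per-plate z-scores of cell number underlie the calls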
Direction: Kc cell number and S2R+ cell number: higher = more cells remaining
Call rule: 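Active when the per-plate z-score of cell number is 3 or more in the direction of fewer cells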
The screen tested about 21,000 reagents; this is an unselected part of those that have a named target and a result. In the full data, 429 (2%) are marked active. 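Values are raw and not normalised between plates; calls rest on per-plate z-scores that were not deposited.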 Names joined by + are all predicted targets of the reagent. The record does not give: the amount of reagent, the time to read-out.

| Gene | DRSC id | Kc cell number, rep 1 | Kc cell number, rep 2 | S2R+ cell number, rep 1 | S2R+ cell number, rep 2 | Outcome |
| --- | --- | --- | --- | --- | --- | --- |
| Spn42Dc (Serpin 42Dc) | DRSC05010 | 1.67e6 | 1.64e6 | 1.35e6 | 1.52e6 | inactive |
| hfw (halfway) | DRSC18506 | 1.55e6 | 1.52e6 | 1.00e6 | 1.14e6 | inactive |
| tpr (tracheal-prostasin) | DRSC04468 | 1.31e6 | 1.39e6 | 1.00e6 | 1.08e6 | inactive |
| CG1532 | DRSC20516 | 1.48e6 | 1.53e6 | 1.00e6 | 1.12e6 | inactive |
| loj (logjam) | DRSC09791 | 1.34e6 | 1.41e6 | 1.26e6 | 1.12e6 | inactive |
| Wdr81 (WD repeat domain 81) | DRSC02985 | 1.33e6 | 1.38e6 | 1.12e6 | 1.22e6 | inactive |
| MFS10 (Major Facilitator Superfamily Transporter 10) | DRSC19888 | 6.22e5 | – | 9.02e5 | – | inactive |
| CG7849 | DRSC04895 | 1.51e6 | 1.58e6 | 1.22e6 | 1.34e6 | inactive |
| CG4281 | DRSC18521 | 4.97e5 | – | 7.55e5 | – | inactive |
| rg (rugose) | DRSC17377 | 1.45e6 | 1.64e6 | 1.11e6 | 1.23e6 | inactive |
| rg (rugose) | DRSC17726 | 5.49e5 | – | 9.40e5 | – | inactive |
| rg (rugose) | DRSC18049 | 1.61e6 | 1.63e6 | 1.14e6 | 1.24e6 | inactive |
| Rab3 | DRSC07523 | 1.46e6 | 1.58e6 | 1.03e6 | 1.09e6 | inactive |
| Rap1 (Rap1 GTPase) | DRSC08686 | 1.34e6 | 1.43e6 | 1.20e6 | 1.22e6 | inactive |
| Cdc23 (Cell division cycle 23) | DRSC02708 | 1.27e6 | 1.41e6 | 1.10e6 | 1.11e6 | inactive |
| CG11550 | DRSC14326 | 1.55e6 | 1.48e6 | 1.00e6 | 1.13e6 | inactive |
| CG33648 | DRSC01387 | 1.62e6 | 1.64e6 | 9.34e5 | 1.21e6 | inactive |
| vap (vacuolar peduncle) | DRSC20275 | 5.35e5 | – | 9.60e5 | – | inactive |
| Patronin | DRSC06756 | 1.71e6 | 1.81e6 | 1.31e6 | 1.53e6 | inactive |
| Patronin | DRSC06757 | 1.65e6 | 1.71e6 | 1.13e6 | 1.29e6 | inactive |
| Patronin | DRSC06994 | 1.59e6 | 1.68e6 | 1.14e6 | 1.31e6 | inactive |
| Andorra | DRSC19475 | 1.49e6 | 1.49e6 | 1.07e6 | 1.16e6 | inactive |
| CG31678 | DRSC02618 | 9.58e5 | 1.08e6 | 7.05e5 | 5.47e5 | inactive |
| CG31678 | DRSC02619 | 1.57e6 | 1.71e6 | 1.15e6 | 2.68e5 | inactive |
| Rrp4 | DRSC04434 | 1.35e6 | 1.42e6 | 1.14e6 | 1.14e6 | inactive |
| achi (achintya) | DRSC07276 | 1.46e6 | 1.50e6 | 1.23e6 | 1.39e6 | inactive |
| mtgo (miles to go) | DRSC02245 | 1.41e6 | 1.33e6 | 6.94e5 | 6.63e5 | active |
| mtgo (miles to go) | DRSC02246 | 1.63e6 | 1.62e6 | 9.91e5 | 1.12e6 | inactive |
| mtgo (miles to go) | DRSC02769 | 1.46e6 | 1.54e6 | 1.37e6 | 1.37e6 | inactive |
| Muc26B (Mucin 26B) | DRSC02322 | 1.66e6 | 1.38e6 | 1.14e6 | 1.29e6 | inactive |
| CG31805 | DRSC01563 | 1.45e6 | 1.50e6 | 9.15e5 | 1.11e6 | inactive |
| foi (fear-of-intimacy) | DRSC10719 | 1.74e6 | 1.72e6 | 8.94e5 | 1.05e6 | inactive |
| RpL7 (Ribosomal protein L7) | DRSC03417 | 8.74e5 | 1.07e6 | 6.45e5 | 8.02e5 | active |
| baz (bazooka) | DRSC20309 | 1.46e6 | 1.42e6 | 1.14e6 | 1.26e6 | inactive |
| CG3397 | DRSC15487 | 1.41e6 | 1.54e6 | 1.18e6 | 1.27e6 | inactive |
| crq (croquemort) | DRSC00810 | 1.46e6 | 1.52e6 | 1.04e6 | 1.20e6 | inactive |
| CG14340 | DRSC00370 | 1.45e6 | 1.53e6 | 9.94e5 | 1.11e6 | inactive |
| Lip2 (Lipase 2) | DRSC02577 | 1.54e6 | 1.56e6 | 1.18e6 | 1.28e6 | inactive |
| Lip2 (Lipase 2) | DRSC02578 | 1.55e6 | 1.56e6 | 1.22e6 | 1.32e6 | inactive |
| Rpt1 (Regulatory particle triple-A ATPase 1) | DRSC07542 | 4.80e5 | 6.59e5 | 5.11e5 | 6.26e5 | active |
| CG12099 | DRSC08253 | 1.70e6 | 1.69e6 | 1.05e6 | 1.50e6 | inactive |
| Hr3 (Hormone receptor 3) | DRSC06118 | 1.28e6 | 1.39e6 | 7.17e5 | 7.32e5 | active |
| Hr3 (Hormone receptor 3) | DRSC07441 | 1.49e6 | 1.48e6 | 1.16e6 | 1.20e6 | inactive |
| mthl6 (methuselah-like 6) | DRSC10234 | 1.26e6 | 1.20e6 | 1.08e6 | 1.16e6 | inactive |
| CG33155 + mRpL53 | DRSC05461 | 1.49e6 | 1.43e6 | 9.00e5 | 1.12e6 | inactive |
| l(3)80Fj (lethal (3) 80Fj) | DRSC20986 | 1.17e6 | 1.36e6 | 1.11e6 | 1.13e6 | inactive |
| l(3)80Fj (lethal (3) 80Fj) | DRSC20989 | 1.46e6 | 1.41e6 | 1.03e6 | 1.14e6 | inactive |
| Noa36 | DRSC16761 | 6.03e5 | – | 8.64e5 | – | inactive |
| ZnT35C (Zinc transporter 35C) | DRSC01959 | 1.52e6 | 1.70e6 | 1.16e6 | 1.27e6 | inactive |
| Rh2 (Rhodopsin 2) | DRSC16821 | 1.39e6 | 1.48e6 | 1.11e6 | 1.14e6 | inactive |
| pont (pontin) | DRSC17029 | 1.55e6 | 1.53e6 | 1.22e6 | 1.29e6 | inactive |
| CG13360 | DRSC18536 | 6.34e5 | – | 9.14e5 | – | inactive |
| en (engrailed) | DRSC07609 | 1.66e6 | 1.69e6 | 1.24e6 | 1.42e6 | inactive |
| CG15888 | DRSC15125 | 1.37e6 | 1.46e6 | 1.22e6 | 1.31e6 | inactive |
| CR14499 (retired record) | DRSC06470 | 1.49e6 | 1.55e6 | 1.15e6 | 1.25e6 | inactive |
| CG3698 | DRSC11749 | 1.64e6 | 1.71e6 | 1.46e6 | 1.51e6 | inactive |
| Mur18B (Mucin related 18B) | DRSC20063 | 1.60e6 | 1.64e6 | 1.18e6 | 1.33e6 | inactive |
| UQCR-Q (Ubiquinol-cytochrome c reductase ubiquinone-binding protein) | DRSC10886 | 1.31e6 | 1.40e6 | 1.16e6 | 1.28e6 | inactive |
| AstC-R1 (Allatostatin C receptor 1) | DRSC10799 | 1.54e6 | 1.72e6 | 1.45e6 | 1.57e6 | inactive |

9 entries from above, set out differently:
Gene,DRSC id,"Kc cell number, rep 1","Kc cell number, rep 2","S2R+ cell number, rep 1","S2R+ cell number, rep 2",Outcome
CG1532,DRSC20516,1.48e6,1.53e6,1.00e6,1.12e6,inactive
loj (logjam),DRSC09791,1.34e6,1.41e6,1.26e6,1.12e6,inactive
Wdr81 (WD repeat domain 81),DRSC02985,1.33e6,1.38e6,1.12e6,1.22e6,inactive
MFS10 (Major Facilitator Superfamily Transporter 10),DRSC19888,6.22e5,,9.02e5,,inactive
CG7849,DRSC04895,1.51e6,1.58e6,1.22e6,1.34e6,inactive
CG4281,DRSC18521,4.97e5,,7.55e5,,inactive
rg (rugose),DRSC17377,1.45e6,1.64e6,1.11e6,1.23e6,inactive
rg (rugose),DRSC17726,5.49e5,,9.40e5,,inactive
rg (rugose),DRSC18049,1.61e6,1.63e6,1.14e6,1.24e6,inactive
